Test results reported in PubChem BioAssay AID2685 (National Center for Advancing Translational Sciences (NCATS), 2010).
Some of the results follow. These are further read-outs of the screen, such as a control signal, another cell line or another target. No call is given for them. The list favours compounds with an active or inconclusive main result. Potencies come from curve fits of mixed quality, noted in brackets.

Assay: qHTS Assay for Lipid Storage Modulators in Drosophila S3 Cells;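 for cell number change: cells counted by Cell Tracker Red CMTPX staining in the red channel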
Details: BODIPY lipid droplet fluorescence, 18-24 h; for cell number change: measured here: cell count max response, cells fed with added oleic acid
Procedure, shortened: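 Drosophila S3 cells loaded with oleic acid (400 uM, as added) and compounds at several concentrations; lipid droplets imaged by 488-nm laser-scanning cytometry, 500–530 nm intensity and object ratio to cell channel. Percent activity normalized to 20 uM Triacsin C.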

[1] = measured here: lipid fluorescence (Fed channel) AC50, cells fed with added oleic acid
[2] = measured here: cell number channel AC50, cells fed with added oleic acid

Structure (SMILES)	cell number change [%]	AC50 [1]	AC50 [2]
CC(C)(C)OC(=O)CNC(=O)c1[nH]cnc1C(=O)N[C@@H](Cc1ccccc1)C(=O)OCc1ccccc1	5.99		
O=C(CNC(=O)c1ccncc1)N/N=C/c1ccccn1	3.13	2.31 µM [falling, partial curve]	
Cc1ccc(OCC(=O)NCCCNC(=O)c2ccco2)cc1	6.52	6.51 µM [falling, single point]	
COc1ccc(C(=O)NCC(=O)NCC(=O)OCc2ccc(Br)cc2)cc1			2.91 µM [rising, single point]
O=C1CN(CC(=O)NC(=O)NCc2ccccc2)CCN1	-22.5	23.1 µM [falling, single point]	3.66 µM [falling, full curve, poor fit]
CN(C)CCNc1ccc(-c2n[nH]c(=O)c3ccccc23)cc1[N+](=O)[O-]	16.7		
O=C1C2C3C=CC(C3)C2C(=O)N1CC1CCCO1 (stereo unspecified)	-8.5	0.517 µM [falling, full curve]	
CCC1CCCCN1CCCNC(=O)CN1C(=O)CSc2ccc(S(=O)(=O)N3CCC(C)CC3)cc21 (stereo unspecified)	5.5	29.1 µM [rising, single point]	
Cc1c(Cc2ccc3c(c2)OCO3)sc(NC(=O)C2CC2)c1C(N)=O	26.3	0.092 µM [rising, full curve, poor fit]	0.326 µM [rising, full curve]
O=C(N/N=C/c1c(O)ccc2ccccc12)c1ccc(CO)nc1	-39.3		18.4 µM [falling, partial curve]
CCCc1nc2sc3c(SCC(=O)NCc4ccco4)ncnc3c2c2c1CCC2	-39.5	29.1 µM [falling, single point]	18.4 µM [falling, single point]
CCCC(=O)Nc1ccc(C(=O)NN2C(=O)c3ccccc3C2=O)cc1	19.1	13 µM [rising, partial curve, poor fit]	
Cc1cnc(=O)[nH]c1SCc1ccccc1F	-11.3		
CC1(c2ccccc2)NC(=O)N(CCOc2ccccc2)C1=O (stereo unspecified)	-9.73	29.1 µM [rising, single point]	
CC[C@@]12C(=O)N(c3ccccc3)C(=O)N1[C@H](c1ccc(Br)cc1)[C@@H]1C(=O)N(C(C)(C)C)C(=O)[C@@H]12	15.5	0.146 µM [falling, full curve, poor fit]	
N#Cc1c(-c2ccc(F)cc2)cc(-c2cccnc2)nc1N	117		29.1 µM [rising, single point]
Nn1cnnc1SCC(=O)N1CCc2ccccc2C1	31.8	29.1 µM [rising, single point]	29.1 µM [rising, single point]
COC(=O)c1cc(Br)c(=O)n(Cc2ccco2)c1	5.55	0.146 µM [rising, full curve, poor fit]	
Cc1ccc(C)c(S(=O)(=O)N2CCN(C(=O)[C@H](C)N3C(=O)C4CC=CCC4C3=O)CC2)c1 (stereo partly specified)	0.122	0.103 µM [rising, full curve, poor fit]	
COc1ccc(C(=O)N/C(=C\c2cccc([N+](=O)[O-])c2)C(=O)Nc2cccc(C(=O)O)c2)cc1	17.8	0.00517 µM [falling, full curve, poor fit]	
Cc1nn(-c2ccccc2)c(C)c1C(=O)Nc1ccc(N2CCOCC2)cc1	-48.3	29.1 µM [falling, partial curve, poor fit]	29.1 µM [falling, single point]

Structure (SMILES)	cell number change [%]	AC50 [1]	AC50 [2]
Cn1c(SCC(=O)Nc2sccc2C#N)nnc1-c1ccccc1	8.83		0.146 µM [rising, partial curve, poor fit]
CC1(C)CC(=O)C=C(Nc2ccc(Br)cc2F)C1	-5.84		
COc1ccc(C(=O)N(c2ccccc2)C2C=CS(=O)(=O)C2)cc1 (stereo unspecified)	3.45	0.651 µM [falling, single point]	
COc1cccc(NC(=O)c2ccncc2)c1	-8.31	0.82 µM [falling, full curve, poor fit]	
COc1ccc(OC)c(NC(=O)CCCN2C(=O)C3C4C=CC(C4)C3C2=O)c1 (stereo unspecified)	-8.79		4.11 µM [falling, single point]
NC(N)=N/N=C/c1ccc(OS(=O)(=O)c2ccccc2)cc1	-2.9		
Cc1cccc(NC(=O)C2CCCN(S(=O)(=O)c3cccc4nsnc34)C2)n1 (stereo unspecified)	1.38		
CC(=O)c1sc(NC(=O)c2ccc(C)c(C)c2)nc1C	36.8		
S=C(NCc1ccc(Cl)cc1)NCc1ccco1			1.84 µM [rising, partial curve, poor fit]
CNc1nc(-c2c(C)[nH]c3ccc(OC)cc23)cs1	17.9	0.411 µM [rising, full curve]	
O=C(NC(=S)N1CCCCC1c1cccnc1)c1ccc(Br)cc1 (stereo unspecified)	17.4	11.6 µM [rising, partial curve]	
O=C(O)C1C2C=CC(O2)C1C(=O)NCCc1cccc(Cl)c1 (stereo unspecified)		16.4 µM [rising, partial curve]	3.66 µM [rising, single point]
COc1ccc(CCNC(=O)CSc2nc3ccsc3c(=O)n2CC2CCC(C(=O)O)CC2)cc1OC (stereo unspecified)	-15.3		4.11 µM [falling, partial curve, poor fit]
CCCCC(=O)Nc1ccc(NC(=O)c2ccccc2OC)cn1	17.4	6.51 µM [rising, single point]	0.517 µM [rising, partial curve, poor fit]
COc1ccc(NC(=O)c2ccsc2NC(C)=O)cc1		29.1 µM [falling, single point]	
COc1cc(C(=O)Nc2cc(S(C)(=O)=O)ccc2Cl)ccc1OCC(=O)N1CCOCC1	-0.556	0.00651 µM [falling, full curve, poor fit]	2.59 µM [falling, single point]
Cc1cc2c(c(=O)o1)C(c1cccs1)C(C#N)=C(N)O2 (stereo unspecified)	16.6	0.411 µM [falling, partial curve, poor fit]	0.366 µM [falling, single point]
NC(=O)C1=C[C@@H](c2ccccc2)C[C@@H](OCc2ccc(CO)cc2)O1	10.3	1.03 µM [rising, full curve, poor fit]	
COC(=O)c1ccc(C)c(NC(=O)CN(c2ccccc2)S(=O)(=O)N(C)C)c1	-0.792		
Cc1ccc(S(=O)(=O)n2nc(-c3ccco3)nc2SCc2ccccc2)cc1		1.16 µM [falling, full curve]	
O=C(c1ccc(CN2CCc3ccccc3C2)cc1)N1CCN(c2ccccc2)CC1	-7.7	6.51 µM [rising, single point]	

Among those listed so far, these contain four or more nitrogen atoms.
Structure (SMILES)	cell number change [%]	AC50 [1]	AC50 [2]
CC(C)(C)OC(=O)CNC(=O)c1[nH]cnc1C(=O)N[C@@H](Cc1ccccc1)C(=O)OCc1ccccc1	5.99		
O=C(CNC(=O)c1ccncc1)N/N=C/c1ccccn1	3.13	2.31 µM [falling, partial curve]	
O=C1CN(CC(=O)NC(=O)NCc2ccccc2)CCN1	-22.5	23.1 µM [falling, single point]	3.66 µM [falling, full curve, poor fit]
CN(C)CCNc1ccc(-c2n[nH]c(=O)c3ccccc23)cc1[N+](=O)[O-]	16.7		
CCC1CCCCN1CCCNC(=O)CN1C(=O)CSc2ccc(S(=O)(=O)N3CCC(C)CC3)cc21 (stereo unspecified)	5.5	29.1 µM [rising, single point]	
CCCc1nc2sc3c(SCC(=O)NCc4ccco4)ncnc3c2c2c1CCC2	-39.5	29.1 µM [falling, single point]	18.4 µM [falling, single point]
N#Cc1c(-c2ccc(F)cc2)cc(-c2cccnc2)nc1N	117		29.1 µM [rising, single point]
Nn1cnnc1SCC(=O)N1CCc2ccccc2C1	31.8	29.1 µM [rising, single point]	29.1 µM [rising, single point]
Cc1nn(-c2ccccc2)c(C)c1C(=O)Nc1ccc(N2CCOCC2)cc1	-48.3	29.1 µM [falling, partial curve, poor fit]	29.1 µM [falling, single point]
Cn1c(SCC(=O)Nc2sccc2C#N)nnc1-c1ccccc1	8.83		0.146 µM [rising, partial curve, poor fit]
NC(N)=N/N=C/c1ccc(OS(=O)(=O)c2ccccc2)cc1	-2.9		
Cc1cccc(NC(=O)C2CCCN(S(=O)(=O)c3cccc4nsnc34)C2)n1 (stereo unspecified)	1.38		

Later entries

Structure (SMILES)	cell number change [%]	AC50 [1]	AC50 [2]
Cc1ccccc1Nc1nc(Cl)c(C=O)s1	-83.7		29.1 µM [falling, single point]
COc1cc(C(=O)NCc2ccncc2)cc(OC)c1OC	12.5	9.2 µM [rising, single point]	
COc1ccccc1CNC(=O)c1ccc2ccccc2n1	-18.1		
COc1cc(C(=O)NC2CCCCC2)ccc1OCc1ccc(Cl)cc1Cl		20.6 µM [rising, partial curve]	
Cc1ccc(S(=O)(=O)NC(Cc2ccccc2)C(=O)O)cc1 (stereo unspecified)	-6.58		
CCN(CCCNC(=O)C1CCC(=O)N1Cc1ccc(F)cc1)c1cccc(C)c1 (stereo unspecified)	-11.4		
O=C1CN(C(=O)c2ccccc2F)C(c2ccccc2)c2cc(F)ccc2N1 (stereo unspecified)	3.6		
CCCCN(CC)C(=O)CN1C(=O)c2ccccc2C1=O	-6.95	6.51 µM [rising, single point]	
Cc1cccc(N2CCN(C(=O)CC(NC(=O)c3ccccc3Cl)c3ccccc3)CC2)c1C (stereo unspecified)		29.1 µM [falling, single point]	
CCS(=O)(=O)N1Cc2ccccc2CC1C(=O)Nc1cccc(OC)c1 (stereo unspecified)		6.51 µM [rising, partial curve, poor fit]	
CNc1ccc(Br)cc(C(=O)/C=C/c2cc(OC)ccc2OC)c1=O	-29.5	25.9 µM [falling, partial curve, poor fit]	
Cc1ccc(S(=O)(=O)N2CCCCC2C(=O)O)s1 (stereo unspecified)		1.03 µM [rising, full curve]	1.3 µM [rising, full curve]
COC(=O)C(C(C)C)N1CCc2c(C)nc3c(C#N)cnn3c21 (stereo unspecified)	4.31	0.00517 µM [falling, full curve, poor fit]	0.00517 µM [falling, full curve, poor fit]
CCCOc1ccc(C(=O)Nc2ccc(Cl)cn2)cc1	-13.8	0.92 µM [falling, full curve]	0.92 µM [falling, full curve, poor fit]
COCCN(Cc1ccccc1)C(=O)Cc1ccc(OC)c(S(=O)(=O)N2CCOCC2)c1		20.6 µM [rising, single point]	
CCOC(=O)CNC(=O)C12CC3CC(CC(C3)C1)C2	123		
Cc1noc(NS(=O)(=O)c2ccc(NC(=O)C(F)(F)F)cc2)c1C	20.1	29.1 µM [rising, partial curve]	
C=C(C)C1CCC2(C(=O)O)CCC3(C)C(CCC4C5(C)C(C=O)C(O)C(C)(C)C5CCC43C)C12 (stereo unspecified)	-37.1	29.1 µM [falling, single point]	13 µM [falling, partial curve]
CCN1C=C(Cc2ccc(OC)cc2)C2=C(C1)C(c1ccc(OC)cc1)C(C#N)=C(N)O2 (stereo unspecified)	-0.197		
